Reference: patent US20240301030A1
These are yes or no findings as the source states them, for the method shown. For part of these data: Binding seen in cells or lysates may run through a third protein. Some binding calls cover weakened binding; strength is not graded here. For part of these data: Sequences can lack the tags named with a protein. Each block holds one binder with its values, some of them ahead of it.

What was measured:
[1] = biological target: T1, myc-tagged SORLA 3Fn mini-receptor (human) (UniProt Q92673); assay: co-immunoprecipitation with anti-FLAG, WB anti-myc, lysates of co-transfected HEK293 cells
T1 sequence: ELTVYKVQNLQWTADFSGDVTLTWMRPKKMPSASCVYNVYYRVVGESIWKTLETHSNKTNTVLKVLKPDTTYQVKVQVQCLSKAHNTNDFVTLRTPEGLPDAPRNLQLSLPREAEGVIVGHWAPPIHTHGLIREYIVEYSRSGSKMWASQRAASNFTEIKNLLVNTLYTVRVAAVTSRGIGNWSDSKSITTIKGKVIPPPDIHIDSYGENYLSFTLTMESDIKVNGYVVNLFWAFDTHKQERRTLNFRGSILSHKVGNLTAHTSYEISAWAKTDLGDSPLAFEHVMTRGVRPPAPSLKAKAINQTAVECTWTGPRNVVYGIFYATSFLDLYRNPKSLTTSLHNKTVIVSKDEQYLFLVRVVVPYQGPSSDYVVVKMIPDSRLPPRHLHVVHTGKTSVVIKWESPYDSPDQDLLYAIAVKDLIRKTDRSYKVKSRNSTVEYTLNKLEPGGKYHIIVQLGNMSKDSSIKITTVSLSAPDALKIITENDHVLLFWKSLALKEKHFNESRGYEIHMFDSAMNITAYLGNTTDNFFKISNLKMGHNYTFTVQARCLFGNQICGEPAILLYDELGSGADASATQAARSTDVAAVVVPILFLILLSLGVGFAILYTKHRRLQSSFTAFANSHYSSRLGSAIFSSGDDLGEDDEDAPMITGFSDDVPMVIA

[2] = biological target: full-length SORLA (human) (UniProt Q92673); assay: co-immunoprecipitation with anti-FLAG, WB with polyclonal anti-SORLA, lysates of co-transfected HEK293 cells
[3] = biological target: soluble 3Fn minireceptor with six 3Fn-domains (human) (UniProt Q92673); assay: WB (anti-FLAG) after SDS-PAGE without reducing agent, transfected CHO cells

binding [1]: binds | binding [2]: binds
B1: FLAG-tagged SORLA 3Fn mini-receptor (receptor)
chain: DYKDHDGDYKDHDIDYKDDDDKELTVYKVQNLQWTADFSGDVTLTWMRPKKMPSASCVYNVYYRVVGESIWKTLETHSNKTNTVLKVLKPDTTYQVKVQVQCLSKAHNTNDFVTLRTPEGLPDAPRNLQLSLPREAEGVIVGHWAPPIHTHGLIREYIVEYSRSGSKMWASQRAASNFTEIKNLLVNTLYTVRVAAVTSRGIGNWSDSKSITTIKGKVIPPPDIHIDSYGENYLSFTLTMESDIKVNGYVVNLFWAFDTHKQERRTLNFRGSILSHKVGNLTAHTSYEISAWAKTDLGDSPLAFEHVMTRGVRPPAPSLKAKAINQTAVECTWTGPRNVVYGIFYATSFLDLYRNPKSLTTSLHNKTVIVSKDEQYLFLVRVVVPYQGPSSDYVVVKMIPDSRLPPRHLHVVHTGKTSVVIKWESPYDSPDQDLLYAIAVKDLIRKTDRSYKVKSRNSTVEYTLNKLEPGGKYHIIVQLGNMSKDSSIKITTVSLSAPDALKIITENDHVLLFWKSLALKEKHFNESRGYEIHMFDSAMNITAYLGNTTDNFFKISNLKMGHNYTFTVQARCLFGNQICGEPAILLYDELGSGADASATQAARSTDVAAVVVPILFLILLSLGVGFAILYTKHRRLQSSFTAFANSHYSSRLGSAIFSSGDDLGEDDEDAPMITGFSDDVPMVIA

binding [3]: binds
B2: soluble 3Fn minireceptor with six 3Fn-domains (receptor)
chain: DYKDHDGDYKDHDIDYKDDDDKELTVYKVQNLQWTADFSGDVTLTWMRPKKMPSASCVYNVYYRVVGESIWKTLETHSNKTNTVLKVLKPDTTYQVKVQVQCLSKAHNTNDFVTLRTPEGLPDAPRNLQLSLPREAEGVIVGHWAPPIHTHGLIREYIVEYSRSGSKMWASQRAASNFTEIKNLLVNTLYTVRVAAVTSRGIGNWSDSKSITTIKGKVIPPPDIHIDSYGENYLSFTLTMESDIKVNGYVVNLFWAFDTHKQERRTLNFRGSILSHKVGNLTAHTSYEISAWAKTDLGDSPLAFEHVMTRGVRPPAPSLKAKAINQTAVECTWTGPRNVVYGIFYATSFLDLYRNPKSLTTSLHNKTVIVSKDEQYLFLVRVVVPYQGPSSDYVVVKMIPDSRLPPRHLHVVHTGKTSVVIKWESPYDSPDQDLLYAIAVKDLIRKTDRSYKVKSRNSTVEYTLNKLEPGGKYHIIVQLGNMSKDSSIKITTVSLSAPDALKIITENDHVLLFWKSLALKEKHFNESRGYEIHMFDSAMNITAYLGNTTDNFFKISNLKMGHNYTFTVQARCLFGNQICGEPAILLYDELGS
